The other results are listed elsewhere or left out.
Key:
Test in all cases: log2 fold change, soluble protein after heating vs DMSO (PISA); higher = thermal stabilisation; K562 cells, 10 uM, 30 min; active = over 0.2 and 3.5 SD of the protein, either way, in both replicates (recomputed)
[1] = compound: O=C(CCCCCCC(=O)Nc1ccccc1)NO [vorinostat]
Procedure, shortened: (§1)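 K562 cells at 2×10^6 cells/mL were exposed to 10 μM compound for 30 min, then aliquots were heated for 3 min across 48°C-58°C, pooled, and extracted in PBS containing 0.5% NP-40 at 4°C. The supernatant after 21,000xg for 90 min was taken as soluble protein and measured by TMTpro 16plex LC-MS/MS with channel sums equalised. Thermal stability is reported relative to control samples, with values from duplicates. Fold changes are given on a log2 scale.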

Protein sequences, listed by entry. Tags and fused reporters are not part of them. Lines headed by an entry give the natural chain unless they say otherwise; changes in a name come on top.
UniProt Q6ZTR5: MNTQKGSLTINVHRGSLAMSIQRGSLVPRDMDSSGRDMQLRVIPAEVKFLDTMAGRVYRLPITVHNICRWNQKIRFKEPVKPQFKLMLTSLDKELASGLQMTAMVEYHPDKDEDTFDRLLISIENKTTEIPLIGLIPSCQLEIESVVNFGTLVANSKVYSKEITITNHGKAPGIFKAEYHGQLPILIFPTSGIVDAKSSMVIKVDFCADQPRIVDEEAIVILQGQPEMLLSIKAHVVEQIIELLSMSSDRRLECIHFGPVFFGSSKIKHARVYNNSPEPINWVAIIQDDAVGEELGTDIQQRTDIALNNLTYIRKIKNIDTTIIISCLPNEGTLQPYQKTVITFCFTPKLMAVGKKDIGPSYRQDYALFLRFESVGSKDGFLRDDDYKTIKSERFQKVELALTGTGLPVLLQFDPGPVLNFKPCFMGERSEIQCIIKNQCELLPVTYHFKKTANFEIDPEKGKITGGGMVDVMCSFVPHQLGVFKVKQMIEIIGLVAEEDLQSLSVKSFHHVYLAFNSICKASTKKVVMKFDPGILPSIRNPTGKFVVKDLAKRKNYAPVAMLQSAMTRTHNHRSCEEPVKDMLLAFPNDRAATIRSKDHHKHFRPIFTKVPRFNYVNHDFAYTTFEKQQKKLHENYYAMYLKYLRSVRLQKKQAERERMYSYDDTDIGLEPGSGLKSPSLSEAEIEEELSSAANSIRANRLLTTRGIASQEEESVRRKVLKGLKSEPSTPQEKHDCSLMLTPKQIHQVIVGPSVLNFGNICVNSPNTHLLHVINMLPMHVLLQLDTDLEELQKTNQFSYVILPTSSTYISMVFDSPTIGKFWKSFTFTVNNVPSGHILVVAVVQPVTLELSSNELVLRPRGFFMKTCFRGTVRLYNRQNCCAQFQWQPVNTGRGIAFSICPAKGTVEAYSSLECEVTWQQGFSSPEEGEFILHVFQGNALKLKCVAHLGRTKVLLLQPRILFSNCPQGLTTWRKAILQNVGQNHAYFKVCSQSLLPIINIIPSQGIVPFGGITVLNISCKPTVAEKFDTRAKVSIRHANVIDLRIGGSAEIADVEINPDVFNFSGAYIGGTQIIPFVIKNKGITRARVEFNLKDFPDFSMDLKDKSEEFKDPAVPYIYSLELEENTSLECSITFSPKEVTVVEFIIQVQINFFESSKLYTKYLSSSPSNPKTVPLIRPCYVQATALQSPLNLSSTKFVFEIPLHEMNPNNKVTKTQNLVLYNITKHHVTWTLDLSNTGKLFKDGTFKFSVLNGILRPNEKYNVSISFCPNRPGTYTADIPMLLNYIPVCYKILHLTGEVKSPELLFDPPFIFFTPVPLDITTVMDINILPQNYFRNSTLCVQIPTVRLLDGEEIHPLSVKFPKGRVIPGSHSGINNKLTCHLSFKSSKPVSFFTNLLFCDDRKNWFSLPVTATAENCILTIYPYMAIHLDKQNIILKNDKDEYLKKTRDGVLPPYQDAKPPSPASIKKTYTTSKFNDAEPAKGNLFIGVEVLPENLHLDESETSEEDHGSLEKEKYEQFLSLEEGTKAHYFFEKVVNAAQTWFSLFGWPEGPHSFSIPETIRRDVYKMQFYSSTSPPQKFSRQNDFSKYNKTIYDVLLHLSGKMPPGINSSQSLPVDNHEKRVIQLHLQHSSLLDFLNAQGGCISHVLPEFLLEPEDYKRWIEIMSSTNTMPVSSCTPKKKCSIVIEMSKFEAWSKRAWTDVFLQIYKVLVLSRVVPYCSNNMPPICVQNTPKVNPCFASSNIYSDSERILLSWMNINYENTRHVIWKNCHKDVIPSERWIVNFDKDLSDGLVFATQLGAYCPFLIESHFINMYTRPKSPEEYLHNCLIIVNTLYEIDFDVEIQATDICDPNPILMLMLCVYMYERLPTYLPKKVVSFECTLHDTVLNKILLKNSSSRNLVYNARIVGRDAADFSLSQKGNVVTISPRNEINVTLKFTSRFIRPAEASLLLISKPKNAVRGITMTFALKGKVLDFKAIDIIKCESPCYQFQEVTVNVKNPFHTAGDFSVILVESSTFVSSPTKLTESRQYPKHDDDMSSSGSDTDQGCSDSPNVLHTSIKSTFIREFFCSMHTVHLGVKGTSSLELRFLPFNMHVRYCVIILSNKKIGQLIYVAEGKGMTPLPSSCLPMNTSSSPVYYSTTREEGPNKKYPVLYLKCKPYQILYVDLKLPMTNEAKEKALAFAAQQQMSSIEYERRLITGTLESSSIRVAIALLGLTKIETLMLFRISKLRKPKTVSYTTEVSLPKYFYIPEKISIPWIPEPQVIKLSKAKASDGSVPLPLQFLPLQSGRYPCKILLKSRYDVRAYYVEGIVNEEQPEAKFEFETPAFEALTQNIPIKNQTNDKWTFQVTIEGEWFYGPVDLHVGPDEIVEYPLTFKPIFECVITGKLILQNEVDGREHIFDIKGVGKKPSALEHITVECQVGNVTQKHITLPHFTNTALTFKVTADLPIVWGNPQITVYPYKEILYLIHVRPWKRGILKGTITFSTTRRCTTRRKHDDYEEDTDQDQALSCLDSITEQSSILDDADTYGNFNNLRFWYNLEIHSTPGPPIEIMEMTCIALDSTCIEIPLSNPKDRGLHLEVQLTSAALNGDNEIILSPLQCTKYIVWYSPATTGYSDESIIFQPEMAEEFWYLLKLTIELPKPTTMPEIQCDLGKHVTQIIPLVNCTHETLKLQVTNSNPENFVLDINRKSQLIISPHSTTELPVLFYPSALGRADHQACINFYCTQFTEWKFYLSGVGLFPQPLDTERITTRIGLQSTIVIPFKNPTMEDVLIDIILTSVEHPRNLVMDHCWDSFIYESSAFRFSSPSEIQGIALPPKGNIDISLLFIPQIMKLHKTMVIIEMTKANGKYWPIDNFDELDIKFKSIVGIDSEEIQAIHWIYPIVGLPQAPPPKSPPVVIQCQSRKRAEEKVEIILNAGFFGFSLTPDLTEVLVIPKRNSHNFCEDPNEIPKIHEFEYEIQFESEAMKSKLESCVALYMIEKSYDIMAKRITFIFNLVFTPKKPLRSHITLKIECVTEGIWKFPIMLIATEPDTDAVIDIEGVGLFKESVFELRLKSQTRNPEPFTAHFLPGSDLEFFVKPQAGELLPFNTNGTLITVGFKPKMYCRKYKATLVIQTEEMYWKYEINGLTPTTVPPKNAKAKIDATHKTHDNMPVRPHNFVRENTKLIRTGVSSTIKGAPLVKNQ
UniProt O14613: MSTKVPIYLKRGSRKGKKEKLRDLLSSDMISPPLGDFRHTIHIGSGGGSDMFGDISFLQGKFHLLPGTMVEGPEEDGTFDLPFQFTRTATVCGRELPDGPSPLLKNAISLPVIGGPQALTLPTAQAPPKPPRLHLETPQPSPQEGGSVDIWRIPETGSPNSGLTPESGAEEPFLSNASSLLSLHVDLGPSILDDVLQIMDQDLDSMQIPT
UniProt Q9BYV8: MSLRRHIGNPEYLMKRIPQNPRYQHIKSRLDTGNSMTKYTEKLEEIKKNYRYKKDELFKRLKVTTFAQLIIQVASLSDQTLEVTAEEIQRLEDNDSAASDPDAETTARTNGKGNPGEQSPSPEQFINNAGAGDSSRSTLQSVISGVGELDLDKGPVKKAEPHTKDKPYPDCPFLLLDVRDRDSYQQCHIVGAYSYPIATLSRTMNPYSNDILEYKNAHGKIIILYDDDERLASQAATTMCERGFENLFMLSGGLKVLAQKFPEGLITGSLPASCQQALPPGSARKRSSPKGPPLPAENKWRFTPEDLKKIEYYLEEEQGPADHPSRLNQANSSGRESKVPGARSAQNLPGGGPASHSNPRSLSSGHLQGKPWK
UniProt A8MT69: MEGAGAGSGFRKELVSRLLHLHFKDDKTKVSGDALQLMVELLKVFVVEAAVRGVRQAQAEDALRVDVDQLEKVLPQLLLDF
UniProt P53567: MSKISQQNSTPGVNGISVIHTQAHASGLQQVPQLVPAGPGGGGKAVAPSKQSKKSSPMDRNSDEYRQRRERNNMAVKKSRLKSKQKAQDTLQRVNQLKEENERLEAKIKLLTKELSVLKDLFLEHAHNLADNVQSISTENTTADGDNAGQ
UniProt Q9H211: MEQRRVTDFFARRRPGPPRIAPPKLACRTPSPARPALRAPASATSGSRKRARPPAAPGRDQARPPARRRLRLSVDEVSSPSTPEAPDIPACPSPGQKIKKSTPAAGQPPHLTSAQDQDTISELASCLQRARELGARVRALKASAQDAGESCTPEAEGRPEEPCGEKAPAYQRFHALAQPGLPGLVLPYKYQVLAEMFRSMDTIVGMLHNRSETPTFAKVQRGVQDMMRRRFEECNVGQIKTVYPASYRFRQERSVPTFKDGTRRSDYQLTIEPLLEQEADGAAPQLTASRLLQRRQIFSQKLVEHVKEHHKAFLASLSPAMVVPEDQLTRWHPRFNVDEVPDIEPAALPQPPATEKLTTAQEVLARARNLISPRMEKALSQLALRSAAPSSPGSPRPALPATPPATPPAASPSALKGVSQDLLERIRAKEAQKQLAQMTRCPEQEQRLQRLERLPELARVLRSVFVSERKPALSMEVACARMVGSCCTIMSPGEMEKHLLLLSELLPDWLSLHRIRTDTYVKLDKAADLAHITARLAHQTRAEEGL
UniProt O95813: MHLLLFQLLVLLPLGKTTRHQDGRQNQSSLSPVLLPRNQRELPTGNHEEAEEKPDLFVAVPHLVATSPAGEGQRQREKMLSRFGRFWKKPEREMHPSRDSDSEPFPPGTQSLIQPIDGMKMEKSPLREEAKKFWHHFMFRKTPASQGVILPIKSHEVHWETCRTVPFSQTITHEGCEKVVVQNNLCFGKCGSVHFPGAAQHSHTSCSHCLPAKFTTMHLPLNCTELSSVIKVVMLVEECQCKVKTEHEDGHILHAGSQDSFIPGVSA
UniProt Q7Z7K6: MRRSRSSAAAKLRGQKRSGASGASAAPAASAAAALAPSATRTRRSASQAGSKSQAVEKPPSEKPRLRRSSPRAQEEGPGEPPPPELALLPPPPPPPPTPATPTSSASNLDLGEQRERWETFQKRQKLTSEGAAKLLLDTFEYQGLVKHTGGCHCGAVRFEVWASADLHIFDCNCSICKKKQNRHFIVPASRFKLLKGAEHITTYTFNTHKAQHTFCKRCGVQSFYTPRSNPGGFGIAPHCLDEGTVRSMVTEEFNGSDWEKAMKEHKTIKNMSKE
UniProt Q9BS16: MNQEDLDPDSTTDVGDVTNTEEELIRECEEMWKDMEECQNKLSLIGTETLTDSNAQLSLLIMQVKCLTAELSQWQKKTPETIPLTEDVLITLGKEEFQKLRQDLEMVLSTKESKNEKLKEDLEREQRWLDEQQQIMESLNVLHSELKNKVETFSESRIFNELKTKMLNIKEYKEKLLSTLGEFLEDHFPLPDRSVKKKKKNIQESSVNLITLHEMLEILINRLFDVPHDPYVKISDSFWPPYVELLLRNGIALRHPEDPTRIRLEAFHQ
UniProt Q86WJ1: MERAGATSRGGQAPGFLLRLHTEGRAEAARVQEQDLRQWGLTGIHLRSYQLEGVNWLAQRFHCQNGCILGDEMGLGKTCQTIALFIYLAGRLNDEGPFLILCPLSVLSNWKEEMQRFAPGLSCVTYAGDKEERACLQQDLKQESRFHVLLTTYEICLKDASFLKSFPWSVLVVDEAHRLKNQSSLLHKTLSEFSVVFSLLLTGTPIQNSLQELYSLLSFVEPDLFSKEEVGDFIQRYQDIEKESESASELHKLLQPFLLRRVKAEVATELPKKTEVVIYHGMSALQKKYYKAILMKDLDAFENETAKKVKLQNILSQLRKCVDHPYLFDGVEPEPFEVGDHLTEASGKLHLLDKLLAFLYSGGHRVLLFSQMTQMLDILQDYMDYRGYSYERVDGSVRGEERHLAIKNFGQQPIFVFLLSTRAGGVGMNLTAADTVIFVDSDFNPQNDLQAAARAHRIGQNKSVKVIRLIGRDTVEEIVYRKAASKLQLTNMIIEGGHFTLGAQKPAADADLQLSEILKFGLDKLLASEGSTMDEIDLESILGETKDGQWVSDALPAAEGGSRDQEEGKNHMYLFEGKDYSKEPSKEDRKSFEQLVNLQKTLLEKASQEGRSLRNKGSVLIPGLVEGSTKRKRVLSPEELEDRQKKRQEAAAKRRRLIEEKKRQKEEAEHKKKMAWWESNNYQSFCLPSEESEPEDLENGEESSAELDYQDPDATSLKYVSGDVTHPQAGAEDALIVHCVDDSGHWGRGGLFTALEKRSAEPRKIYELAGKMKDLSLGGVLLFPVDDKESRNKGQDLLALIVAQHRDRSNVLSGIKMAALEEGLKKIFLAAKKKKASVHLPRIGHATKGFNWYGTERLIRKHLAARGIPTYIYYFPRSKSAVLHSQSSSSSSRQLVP
UniProt Q7L2Z9: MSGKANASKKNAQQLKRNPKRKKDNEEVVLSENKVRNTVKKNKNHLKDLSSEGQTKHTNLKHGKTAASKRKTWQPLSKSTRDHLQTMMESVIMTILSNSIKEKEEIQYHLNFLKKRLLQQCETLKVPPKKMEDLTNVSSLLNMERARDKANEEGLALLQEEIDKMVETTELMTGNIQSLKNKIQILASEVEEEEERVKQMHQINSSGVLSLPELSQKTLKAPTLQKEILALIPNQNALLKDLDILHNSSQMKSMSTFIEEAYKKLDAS

[2] = compound: NC(=O)c1cnc(N[C@@H]2CCCC[C@@H]2N)nc1Nc1cccc(-n2nccn2)c1
Procedure, shortened: as §1

[3] = compound: NCC(=O)Nc1ccc(-n2nc(C(F)(F)F)cc2-c2ccc3c(ccc4ccccc43)c2)cc1
Procedure, shortened: as §1

[4] = compound: O=C(CCCCCCNC(=O)c1cnc(N(c2ccccc2)c2ccccc2Cl)nc1)NO [citarinostat]
Procedure, shortened: as §1

[5] = compound: c1cc(OCCN2CCCCC2)cc(-c2n[nH]c3ccc(-c4nnc[nH]4)cc23)c1
Procedure, shortened: as §1

[6] = compound: NC(=O)Nc1cc(-c2cccc(F)c2)sc1C(=O)N[C@H]1CCCNC1
Procedure, shortened: as §1

[7] = compound: Nc1ccccc1NC(=O)c1ccc(CNC(=O)OCc2cccnc2)cc1 [entinostat]
Procedure, shortened: as §1

[8] = compound: NC1(c2ccc(-c3nc4ccn5c(=O)[nH]nc5c4cc3-c3ccccc3)cc2)CCC1
Procedure, shortened: as §1

[9] = compound: O=C(O)c1ccc2c(c1)nc(Nc1cccc(Cl)c1)c1ccncc12 [silmitasertib]
Procedure, shortened: as §1

[10] = compound: O=C1NC(=O)C(c2cnc3ccccn23)=C1c1cn2c3c(cc(F)cc13)CN(C(=O)N1CCCCC1)CC2
Procedure, shortened: as §1

Measured: log2 fold change

CDH2 (UniProt P19022)
inactive: [1] -1.15

CDR2L (UniProt Q86X02)
inactive: [2] -0.071 | [3] -0.125 | [1] 0.102 | [4] 0.032 | [5] -0.128

CDCA8 (UniProt Q53HL2)
inactive: [6] 0.023 | [7] -0.129

CDS1 (UniProt Q92903)
inactive: [8] 0.039 | [9] 0.061 | [10] 0.055

CFAP47 (UniProt Q6ZTR5)
inactive: [2] 0.022 | [3] -0.024 | [4] -0.042 | [10] -0.025 | [5] -0.008

CEP85 (UniProt Q6P2H3)
inactive: [2] 0.097 | [8] -0.03 | [3] -0.041 | [1] 0.017 | [4] 0.046 | [9] -0.102 | [5] -0.044

Taken from the listing (2 entries):
CDCA8 (UniProt Q53HL2)
inactive: [6] 0.023 | [7] -0.129

CDS1 (UniProt Q92903)
inactive: [8] 0.039 | [9] 0.061 | [10] 0.055

Remaining list, next part

CENPC (UniProt Q03188)
inactive: [2] -0.034 | [3] 0.048 | [4] -0.006 | [10] 0.224 | [5] -0.191

CENPP (UniProt Q6IPU0)
inactive: [8] -0.232 | [1] 0.368 | [9] -0.118 | [10] -0.01

CHD8 (UniProt Q9HCK8)
inactive: [10] -0.089

CEP83 (UniProt Q9Y592)
inactive: [4] 0.021 | [5] 0.015

CHD1 (UniProt O14646)
inactive: [2] -0.095 | [1] 0.008 | [10] 0.243

CHFR (UniProt Q96EP1)
inactive: [8] -0.059 | [3] -0.168 | [4] 0.064 | [9] 0.175 | [10] -0.06 | [5] 0.282

CDC42BPG (UniProt Q6DT37)
inactive: [3] 0.045 | [4] 0.074 | [5] -0.225

CDNF (UniProt Q49AH0)
inactive: [3] 0.015

CDC42EP2 (UniProt O14613)
inactive: [6] -0.103 | [7] 0.15 | [10] 0.018

CEP41 (UniProt Q9BYV8)
inactive: [6] -0.048 | [7] 0.24 | [4] 0.178 | [5] -0.331

CFAP58 (UniProt Q5T655)
inactive: [8] 0.028 | [1] 0.018 | [4] -0.357 | [9] -0.008 | [5] 0.392

CENPX (UniProt A8MT69)
inactive: [6] -0.05 | [7] 0.068 | [4] 0.112 | [5] -0.183

CEBPG (UniProt P53567)
inactive: [2] -0.07 | [1] -0.158 | [4] -0.141 | [5] -0.286

CEMIP2 (UniProt Q9UHN6)
inactive: [2] 0.072 | [8] -0.243 | [3] -0.072 | [1] 0.038 | [4] 0.124 | [9] 0.057 | [10] 0.034 | [5] -0.078

CDT1 (UniProt Q9H211)
inactive: [10] -0.002

CHCHD10 (UniProt Q8WYQ3)
inactive: [8] -0.024 | [3] 0.167 | [4] -0.04 | [9] -0.038 | [10] -0.015 | [5] -0.073

CFL1 (UniProt E9PP50)
inactive: [1] 0.217

CDK5RAP2 (UniProt Q96SN8)
inactive: [3] 0 | [10] -0.11

CER1 (UniProt O95813)
inactive: [1] -0.876

CENPV (UniProt Q7Z7K6)
inactive: [6] 0.043 | [7] 0.074 | [1] 0.099 | [10] 0.318

CENPK (UniProt Q9BS16)
inactive: [3] 0.071 | [4] 0.117 | [5] 0.066

CHD1L (UniProt Q86WJ1)
inactive: [6] -0.126 | [3] -0.361 | [7] -0.051 | [1] 0.157

CDC6 (UniProt Q99741)
inactive: [10] -0.094

CHMP2A (UniProt M0R1T5)
inactive: [2] 0.104 | [8] -0.225 | [9] -0.081

CDK2AP2 (UniProt O75956)
inactive: [2] -0.05 | [8] 0.14 | [4] 0.009 | [9] -0.094 | [10] -0.062 | [5] -0.1

CEFIP (UniProt Q711Q0)
inactive: [2] -0.015 | [8] -0.005 | [3] -0.187 | [9] 0.044 | [10] 0.098

CENPQ (UniProt Q7L2Z9)
inactive: [6] -0.059 | [8] -0.069 | [7] -0.109 | [9] -0.059 | [10] -0.076

CHCHD5 (UniProt Q9BSY4)
inactive: [6] 0.046 | [8] 0.037 | [7] 0.182 | [9] -0.079

CEBPZOS (UniProt A8MTT3)
inactive: [2] 0.022 | [8] -0.124 | [3] 0.028 | [1] -0.03 | [4] -0.011 | [9] 0.018 | [5] -0.056
